Drawing on publication PMC9681739, this text covers binding for one substance.

For the experiment, the target named is T1, syndecan-4 (rat) (UniProt P34901).
T1 sequence: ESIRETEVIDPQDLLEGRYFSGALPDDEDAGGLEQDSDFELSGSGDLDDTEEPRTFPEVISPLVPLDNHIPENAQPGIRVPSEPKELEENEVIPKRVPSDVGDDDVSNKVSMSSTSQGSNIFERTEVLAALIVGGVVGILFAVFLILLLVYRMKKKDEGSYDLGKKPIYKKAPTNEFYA
Put plainly: co-IP; chondrocytes transduced with Lv-Sdc4 (MOI = 100), cold RIPA lysis buffer; 1 ug anti-SDC4 (PA1-32485) or normal rabbit IgG overnight at 4 °C, protein A/G PLUS-Agarose 3 h at 4 °C; western blot with anti-ADAMTS-5 (ab41037).

No constants are given. Whether binding was seen depends on the method and setting. In cells and extracts the contact can be indirect. Binding calls can cover weak binding; strength is not graded here.

With “ADAMTS-5 (rat (endogenous in rat chondrocytes)) (enzyme)”, the binding entry is on record as “binds”.
